# The list shows a part of the results.
# Amino acid sequences for entries named in this document (tags omitted). A change or cut given only in a name is not applied to a line headed by its entry.
# UniProt Q14694, whole entry, looked up: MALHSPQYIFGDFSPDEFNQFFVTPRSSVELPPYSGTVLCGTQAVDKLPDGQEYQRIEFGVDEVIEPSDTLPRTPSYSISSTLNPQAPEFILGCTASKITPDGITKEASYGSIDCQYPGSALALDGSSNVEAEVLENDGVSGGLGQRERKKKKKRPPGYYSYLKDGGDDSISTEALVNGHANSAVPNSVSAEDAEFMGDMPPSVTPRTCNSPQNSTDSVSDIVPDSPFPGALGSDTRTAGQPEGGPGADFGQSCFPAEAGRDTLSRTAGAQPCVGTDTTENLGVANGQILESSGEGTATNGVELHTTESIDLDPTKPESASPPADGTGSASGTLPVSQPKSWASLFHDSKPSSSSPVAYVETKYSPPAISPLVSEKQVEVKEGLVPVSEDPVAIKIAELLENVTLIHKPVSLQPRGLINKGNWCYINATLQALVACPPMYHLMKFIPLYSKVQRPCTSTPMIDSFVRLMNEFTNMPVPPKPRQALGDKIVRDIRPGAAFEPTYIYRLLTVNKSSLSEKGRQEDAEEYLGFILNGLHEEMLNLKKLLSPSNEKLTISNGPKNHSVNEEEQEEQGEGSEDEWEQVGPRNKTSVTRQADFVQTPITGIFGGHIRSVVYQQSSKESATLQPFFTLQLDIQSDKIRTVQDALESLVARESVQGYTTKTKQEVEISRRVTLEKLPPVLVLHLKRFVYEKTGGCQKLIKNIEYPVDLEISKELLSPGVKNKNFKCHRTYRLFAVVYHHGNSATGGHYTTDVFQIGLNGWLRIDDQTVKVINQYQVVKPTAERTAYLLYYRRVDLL
# UniProt Q86UV5: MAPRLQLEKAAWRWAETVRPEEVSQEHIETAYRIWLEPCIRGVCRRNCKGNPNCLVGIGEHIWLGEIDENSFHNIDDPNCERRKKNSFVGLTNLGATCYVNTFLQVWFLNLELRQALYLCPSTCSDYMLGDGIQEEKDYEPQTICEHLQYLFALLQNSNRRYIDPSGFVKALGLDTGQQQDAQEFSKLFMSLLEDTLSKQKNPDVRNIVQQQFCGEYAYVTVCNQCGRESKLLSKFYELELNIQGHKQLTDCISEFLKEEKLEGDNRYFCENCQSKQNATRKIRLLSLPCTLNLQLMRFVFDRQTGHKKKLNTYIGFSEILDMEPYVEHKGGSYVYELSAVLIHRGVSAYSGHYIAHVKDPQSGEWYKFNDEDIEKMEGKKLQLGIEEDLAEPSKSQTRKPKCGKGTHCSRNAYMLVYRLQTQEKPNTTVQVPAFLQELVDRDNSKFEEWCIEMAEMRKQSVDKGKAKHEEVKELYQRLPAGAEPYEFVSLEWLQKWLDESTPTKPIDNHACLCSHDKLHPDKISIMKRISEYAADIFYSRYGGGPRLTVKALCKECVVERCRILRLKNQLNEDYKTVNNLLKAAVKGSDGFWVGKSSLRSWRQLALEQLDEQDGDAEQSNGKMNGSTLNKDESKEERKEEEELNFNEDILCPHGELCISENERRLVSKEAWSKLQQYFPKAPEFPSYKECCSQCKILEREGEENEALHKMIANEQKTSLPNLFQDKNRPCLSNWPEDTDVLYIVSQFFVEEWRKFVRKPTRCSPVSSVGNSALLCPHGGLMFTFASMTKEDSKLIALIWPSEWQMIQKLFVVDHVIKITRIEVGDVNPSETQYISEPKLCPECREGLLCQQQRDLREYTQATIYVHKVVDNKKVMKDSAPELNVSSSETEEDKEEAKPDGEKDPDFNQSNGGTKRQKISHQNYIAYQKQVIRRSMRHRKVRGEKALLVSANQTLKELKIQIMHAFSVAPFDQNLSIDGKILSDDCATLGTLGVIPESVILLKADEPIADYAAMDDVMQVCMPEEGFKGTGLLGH
# UniProt O60701: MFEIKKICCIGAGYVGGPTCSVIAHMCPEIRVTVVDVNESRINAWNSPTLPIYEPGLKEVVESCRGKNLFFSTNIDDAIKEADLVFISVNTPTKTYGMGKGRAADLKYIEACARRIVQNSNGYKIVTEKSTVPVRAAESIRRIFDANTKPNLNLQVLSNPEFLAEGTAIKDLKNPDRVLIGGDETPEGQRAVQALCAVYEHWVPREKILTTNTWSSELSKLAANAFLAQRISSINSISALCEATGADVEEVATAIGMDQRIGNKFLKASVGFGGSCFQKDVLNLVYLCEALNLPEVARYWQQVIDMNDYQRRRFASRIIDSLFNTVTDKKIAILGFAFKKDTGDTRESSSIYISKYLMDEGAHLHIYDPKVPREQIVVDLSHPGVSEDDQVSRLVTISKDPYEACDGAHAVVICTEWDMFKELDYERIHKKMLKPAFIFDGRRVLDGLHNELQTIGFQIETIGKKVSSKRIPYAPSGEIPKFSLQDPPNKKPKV
# UniProt P40818: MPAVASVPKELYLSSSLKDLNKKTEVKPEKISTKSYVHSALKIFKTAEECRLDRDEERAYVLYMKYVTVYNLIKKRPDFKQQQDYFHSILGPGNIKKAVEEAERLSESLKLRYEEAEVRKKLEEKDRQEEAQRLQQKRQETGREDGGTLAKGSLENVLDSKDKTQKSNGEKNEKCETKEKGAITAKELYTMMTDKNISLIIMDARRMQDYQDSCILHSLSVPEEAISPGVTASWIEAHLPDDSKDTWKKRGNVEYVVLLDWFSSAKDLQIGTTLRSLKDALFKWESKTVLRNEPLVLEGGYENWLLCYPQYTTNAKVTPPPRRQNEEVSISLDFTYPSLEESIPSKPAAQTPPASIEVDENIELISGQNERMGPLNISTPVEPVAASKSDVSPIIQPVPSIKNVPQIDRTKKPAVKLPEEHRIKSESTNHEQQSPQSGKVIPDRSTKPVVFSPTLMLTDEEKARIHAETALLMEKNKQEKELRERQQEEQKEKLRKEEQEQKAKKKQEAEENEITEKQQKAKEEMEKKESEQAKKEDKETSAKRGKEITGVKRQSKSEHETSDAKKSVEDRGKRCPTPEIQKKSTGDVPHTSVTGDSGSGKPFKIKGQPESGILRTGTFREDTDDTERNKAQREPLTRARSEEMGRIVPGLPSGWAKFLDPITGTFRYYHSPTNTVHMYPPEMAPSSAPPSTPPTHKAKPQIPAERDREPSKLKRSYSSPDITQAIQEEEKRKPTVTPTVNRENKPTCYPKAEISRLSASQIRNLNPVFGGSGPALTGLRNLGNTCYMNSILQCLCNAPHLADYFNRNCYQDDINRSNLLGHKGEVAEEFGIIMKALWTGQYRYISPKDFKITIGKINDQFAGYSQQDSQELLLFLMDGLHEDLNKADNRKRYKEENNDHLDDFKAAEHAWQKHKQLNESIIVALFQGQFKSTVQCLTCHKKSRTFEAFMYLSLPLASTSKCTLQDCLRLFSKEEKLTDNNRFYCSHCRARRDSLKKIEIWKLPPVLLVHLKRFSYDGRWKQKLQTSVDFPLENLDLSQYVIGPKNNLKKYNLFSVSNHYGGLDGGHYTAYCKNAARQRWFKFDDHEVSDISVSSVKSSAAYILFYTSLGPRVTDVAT
# UniProt Q9P0L0: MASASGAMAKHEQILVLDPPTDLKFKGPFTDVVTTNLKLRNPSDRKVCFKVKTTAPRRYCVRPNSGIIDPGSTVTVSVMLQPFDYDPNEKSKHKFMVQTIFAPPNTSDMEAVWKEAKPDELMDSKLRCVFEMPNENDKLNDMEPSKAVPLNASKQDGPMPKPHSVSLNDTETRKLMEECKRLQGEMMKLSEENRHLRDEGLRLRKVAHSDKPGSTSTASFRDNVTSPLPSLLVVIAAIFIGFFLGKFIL
# UniProt P51809, whole entry, looked up: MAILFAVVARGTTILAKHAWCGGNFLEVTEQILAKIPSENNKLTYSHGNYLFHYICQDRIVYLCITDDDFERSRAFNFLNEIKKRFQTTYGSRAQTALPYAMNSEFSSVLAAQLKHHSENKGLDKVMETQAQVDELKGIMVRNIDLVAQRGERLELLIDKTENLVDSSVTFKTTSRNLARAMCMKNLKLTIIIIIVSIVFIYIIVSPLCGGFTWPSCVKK
# UniProt P21796, whole entry, looked up: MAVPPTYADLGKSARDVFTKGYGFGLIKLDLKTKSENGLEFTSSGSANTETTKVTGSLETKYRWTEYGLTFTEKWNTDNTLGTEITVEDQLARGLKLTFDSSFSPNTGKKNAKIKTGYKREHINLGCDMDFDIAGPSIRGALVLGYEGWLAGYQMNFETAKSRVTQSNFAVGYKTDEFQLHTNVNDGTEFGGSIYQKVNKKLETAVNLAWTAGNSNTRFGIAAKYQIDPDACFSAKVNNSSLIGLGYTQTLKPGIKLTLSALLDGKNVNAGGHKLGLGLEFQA
# UniProt O14949: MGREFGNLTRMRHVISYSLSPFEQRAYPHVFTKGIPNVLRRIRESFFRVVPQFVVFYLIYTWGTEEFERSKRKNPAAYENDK
# UniProt Q9BV40: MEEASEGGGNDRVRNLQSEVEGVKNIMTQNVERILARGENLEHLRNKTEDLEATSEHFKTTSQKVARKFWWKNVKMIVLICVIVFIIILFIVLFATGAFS
# UniProt P18206: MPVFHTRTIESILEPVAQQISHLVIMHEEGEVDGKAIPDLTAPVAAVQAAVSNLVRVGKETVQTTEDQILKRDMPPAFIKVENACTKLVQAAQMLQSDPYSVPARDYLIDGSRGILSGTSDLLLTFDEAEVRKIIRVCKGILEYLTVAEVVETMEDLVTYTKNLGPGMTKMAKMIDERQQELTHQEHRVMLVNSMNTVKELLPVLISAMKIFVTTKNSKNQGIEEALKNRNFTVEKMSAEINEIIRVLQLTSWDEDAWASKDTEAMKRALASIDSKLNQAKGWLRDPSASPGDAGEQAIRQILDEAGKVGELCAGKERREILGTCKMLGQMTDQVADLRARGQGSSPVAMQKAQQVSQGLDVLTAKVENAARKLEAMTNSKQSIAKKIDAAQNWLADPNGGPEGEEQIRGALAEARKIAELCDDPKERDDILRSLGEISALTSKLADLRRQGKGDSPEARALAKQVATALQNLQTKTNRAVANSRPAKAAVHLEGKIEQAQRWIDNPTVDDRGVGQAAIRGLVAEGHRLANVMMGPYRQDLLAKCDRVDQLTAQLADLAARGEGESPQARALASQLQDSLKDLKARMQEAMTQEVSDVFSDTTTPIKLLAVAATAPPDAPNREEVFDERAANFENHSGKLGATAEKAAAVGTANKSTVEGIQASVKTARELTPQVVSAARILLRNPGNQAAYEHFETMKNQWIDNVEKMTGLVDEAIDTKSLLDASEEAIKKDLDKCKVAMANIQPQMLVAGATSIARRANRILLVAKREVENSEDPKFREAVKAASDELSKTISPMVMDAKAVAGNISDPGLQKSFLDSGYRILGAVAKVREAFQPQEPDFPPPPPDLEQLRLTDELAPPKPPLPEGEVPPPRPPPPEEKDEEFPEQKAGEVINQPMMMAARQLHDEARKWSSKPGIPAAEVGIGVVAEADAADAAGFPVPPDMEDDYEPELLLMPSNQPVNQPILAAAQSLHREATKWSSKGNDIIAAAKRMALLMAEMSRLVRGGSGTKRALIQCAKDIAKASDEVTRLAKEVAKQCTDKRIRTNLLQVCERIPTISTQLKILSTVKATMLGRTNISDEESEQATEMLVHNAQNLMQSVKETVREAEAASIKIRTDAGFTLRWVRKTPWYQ
# UniProt Q8TED0: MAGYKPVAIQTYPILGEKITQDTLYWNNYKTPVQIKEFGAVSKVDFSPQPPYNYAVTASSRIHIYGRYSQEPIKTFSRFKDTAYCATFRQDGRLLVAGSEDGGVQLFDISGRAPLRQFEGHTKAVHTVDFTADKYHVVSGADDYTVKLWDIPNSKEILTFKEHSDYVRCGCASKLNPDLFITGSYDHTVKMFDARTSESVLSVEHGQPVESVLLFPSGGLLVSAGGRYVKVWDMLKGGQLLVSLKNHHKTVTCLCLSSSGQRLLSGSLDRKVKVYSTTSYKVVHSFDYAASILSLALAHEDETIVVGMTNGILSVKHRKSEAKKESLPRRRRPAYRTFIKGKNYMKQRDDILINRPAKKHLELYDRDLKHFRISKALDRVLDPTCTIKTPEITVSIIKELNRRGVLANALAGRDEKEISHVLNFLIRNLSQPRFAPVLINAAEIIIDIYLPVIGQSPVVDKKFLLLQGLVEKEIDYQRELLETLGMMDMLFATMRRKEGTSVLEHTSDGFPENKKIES
# UniProt Q53GS9: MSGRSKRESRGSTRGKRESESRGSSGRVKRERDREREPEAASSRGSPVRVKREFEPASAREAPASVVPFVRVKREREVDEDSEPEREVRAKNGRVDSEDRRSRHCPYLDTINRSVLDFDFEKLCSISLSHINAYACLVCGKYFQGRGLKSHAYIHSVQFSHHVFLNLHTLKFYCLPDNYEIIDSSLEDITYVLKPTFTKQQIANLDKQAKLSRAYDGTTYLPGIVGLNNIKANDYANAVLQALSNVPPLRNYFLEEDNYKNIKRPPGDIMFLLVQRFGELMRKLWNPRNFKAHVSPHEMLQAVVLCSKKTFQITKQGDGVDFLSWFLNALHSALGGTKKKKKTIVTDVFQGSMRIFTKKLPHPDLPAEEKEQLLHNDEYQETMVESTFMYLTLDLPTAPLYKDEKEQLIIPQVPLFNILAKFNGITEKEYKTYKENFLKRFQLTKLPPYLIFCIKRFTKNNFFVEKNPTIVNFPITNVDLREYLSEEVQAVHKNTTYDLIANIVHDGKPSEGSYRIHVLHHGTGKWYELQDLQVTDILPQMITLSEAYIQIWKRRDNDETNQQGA
# Compound: CS(=O)(=O)CCNCc1ccc(-c2ccc3ncnc(Nc4ccc(OCc5cccc(F)c5)c(Cl)c4)c3c2)o1 [lapatinib]
# Assay: log2 fold change, soluble protein after heating vs DMSO (PISA); higher = thermal stabilisation; K562 lysate, 10 uM; active = over 0.2 and 3.5 SD of the protein, either way, in both replicates (recomputed)
# Method in brief: (§1)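 The values are log-two fold changes in thermal stability compared with solvent controls and come from duplicates. They were obtained by TMTpro 16plex LC-MS/MS, with channel sums equalised, on the supernatant after 21,000xg for 90 min. That supernatant came from crude K562 extract at 1 mg/mL protein treated with 10 μM compound for 30 min, heated for 3 min across 48°C-58°C, pooled and brought to 0.5% NP-40 at 4°C.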
row,Target,log2 fold change
1,UPF2 (UniProt Q9HAU5),inactive: -0.005
2,VDAC2 isoform 2 (UniProt P45880),inactive: -0.009
3,USP10 isoform 2 (UniProt Q14694),inactive: -0.01
4,VCX3B (UniProt Q9H321),inactive: 0.018
5,UFL1 (UniProt O94874),inactive: -0.044
6,USP48 isoform 8 (UniProt Q86UV5),inactive: -0.01
7,UPF3B (UniProt Q9BZI7),inactive: 0.005
8,VAV3 isoform 4 (UniProt Q9UKW4),inactive: -0.167
9,UGDH (UniProt O60701),inactive: 0.009
10,USP8 (UniProt P40818),inactive: -0.011
11,UFD1 isoform 1 (UniProt Q92890),inactive: 0.011
12,VAPA (UniProt Q9P0L0),inactive: -0.005
13,VAC14 (UniProt Q08AM6),inactive: -0.034
14,USP25 (UniProt Q9UHP3),inactive: -0.004
15,VAMP7 (UniProt P51809),inactive: 0.018
16,UHRF1BP1L (UniProt A0JNW5),inactive: -0.034

row,Target,log2 fold change
1,VANGL1 (UniProt Q8TAA9),inactive: 0.047
2,VDAC1 (UniProt P21796),inactive: 0.002
3,"VARS2, A0A0G2JL52",inactive: -0.002
4,USP15 (UniProt Q9Y4E8),inactive: 0.005
5,UQCRQ (UniProt O14949),inactive: 0.004
6,VAMP8 (UniProt Q9BV40),inactive: -0.001
7,UGGT1 (UniProt Q9NYU2),inactive: -0.008
8,VCL (UniProt P18206),inactive: -0.002
9,UXT isoform 2 (UniProt Q9UBK9),inactive: -0.018
10,UEVLD (UniProt Q8IX04),inactive: -0.024
11,UTP6 (UniProt Q9NYH9),inactive: 0
12,USF1 (UniProt P22415),inactive: -0.049
13,UTP15 (UniProt Q8TED0),inactive: 0.008
14,USP39 (UniProt Q53GS9),inactive: -0.028
15,UQCC1 (UniProt Q9NVA1),inactive: 0.005
16,VIL1 (UniProt P09327),inactive: 0.107

# Compound: CS(=O)(=O)N1CCN(Cc2cc3nc(-c4cccc5[nH]ncc45)nc(N4CCOCC4)c3s2)CC1 [pictilisib]
# Assay: as above
# Method in brief: as §1
row,Target,log2 fold change
1,UPF2 (UniProt Q9HAU5),inactive: -0.011
2,VDAC2 isoform 2 (UniProt P45880),inactive: -0.016
3,USP10 isoform 2 (UniProt Q14694),inactive: -0.015
4,VCX3B (UniProt Q9H321),inactive: 0.035
5,UFL1 (UniProt O94874),inactive: -0.035
6,USP48 isoform 8 (UniProt Q86UV5),inactive: -0.001
7,UPF3B (UniProt Q9BZI7),inactive: 0.021
8,VAV3 isoform 4 (UniProt Q9UKW4),inactive: -0.057
9,UGDH (UniProt O60701),inactive: -0.021
10,USP8 (UniProt P40818),inactive: -0.048
11,UFD1 isoform 1 (UniProt Q92890),inactive: -0.011
12,VAPA (UniProt Q9P0L0),inactive: 0.028
13,VAC14 (UniProt Q08AM6),inactive: -0.005
14,USP25 (UniProt Q9UHP3),inactive: -0.012
15,VAMP7 (UniProt P51809),inactive: -0.05
16,UHRF1BP1L (UniProt A0JNW5),inactive: -0.019

row,Target,log2 fold change
1,VANGL1 (UniProt Q8TAA9),inactive: -0.071
2,VDAC1 (UniProt P21796),inactive: -0.022
3,"VARS2, A0A0G2JL52",inactive: -0.059
4,USP15 (UniProt Q9Y4E8),inactive: 0.004
5,UQCRQ (UniProt O14949),inactive: 0.042
6,VAMP8 (UniProt Q9BV40),inactive: -0.002
7,UGGT1 (UniProt Q9NYU2),inactive: -0.014
8,VCL (UniProt P18206),inactive: 0.017
9,UXT isoform 2 (UniProt Q9UBK9),inactive: -0.073
10,UEVLD (UniProt Q8IX04),inactive: -0.038
11,UTP6 (UniProt Q9NYH9),inactive: -0.088
12,USF1 (UniProt P22415),inactive: -0.013
13,UTP15 (UniProt Q8TED0),inactive: 0.026
14,USP39 (UniProt Q53GS9),inactive: 0.031
15,UQCC1 (UniProt Q9NVA1),inactive: -0.013
16,VIL1 (UniProt P09327),inactive: 0.131

# Compound: C[C@@H](Oc1cc(-c2cnn(C3CCNCC3)c2)cnc1N)c1c(Cl)ccc(F)c1Cl [crizotinib]
# Assay: as above
# Method in brief: as §1
row,Target,log2 fold change
1,UPF2 (UniProt Q9HAU5),inactive: -0.016
2,VDAC2 isoform 2 (UniProt P45880),inactive: -0.006
3,USP10 isoform 2 (UniProt Q14694),inactive: -0.03
4,VCX3B (UniProt Q9H321),inactive: 0.025
5,UFL1 (UniProt O94874),inactive: -0.028
6,USP48 isoform 8 (UniProt Q86UV5),inactive: -0.022
7,UPF3B (UniProt Q9BZI7),inactive: 0.007
8,VAV3 isoform 4 (UniProt Q9UKW4),inactive: -0.217
9,UGDH (UniProt O60701),inactive: -0.015
10,USP8 (UniProt P40818),inactive: -0.009
11,UFD1 isoform 1 (UniProt Q92890),inactive: 0.005
12,VAPA (UniProt Q9P0L0),inactive: 0.138
13,VAC14 (UniProt Q08AM6),inactive: -0.047
14,USP25 (UniProt Q9UHP3),inactive: -0.023
15,VAMP7 (UniProt P51809),inactive: 0.004
16,UHRF1BP1L (UniProt A0JNW5),inactive: -0.013

row,Target,log2 fold change
1,VANGL1 (UniProt Q8TAA9),inactive: 0.031
2,VDAC1 (UniProt P21796),inactive: 0.007
3,"VARS2, A0A0G2JL52",inactive: -0.012
4,USP15 (UniProt Q9Y4E8),inactive: 0.023
5,UQCRQ (UniProt O14949),inactive: 0.007
6,VAMP8 (UniProt Q9BV40),inactive: 0.05
7,UGGT1 (UniProt Q9NYU2),inactive: 0.001
8,VCL (UniProt P18206),inactive: 0.012
9,UXT isoform 2 (UniProt Q9UBK9),inactive: 0.003
10,UEVLD (UniProt Q8IX04),inactive: -0.028
11,UTP6 (UniProt Q9NYH9),inactive: -0.118
12,USF1 (UniProt P22415),inactive: -0.031
13,UTP15 (UniProt Q8TED0),inactive: 0.031
14,USP39 (UniProt Q53GS9),inactive: -0.005
15,UQCC1 (UniProt Q9NVA1),inactive: 0.064
16,VIL1 (UniProt P09327),inactive: -0.02
